# From PubChem BioAssay AID540256 (National Center for Advancing Translational Sciences (NCATS), 2011)
# Hit rate of the full screen: of about 300,000 compounds, about 3,700 (1.2%) were called active. This list was built around the results that the source calls inconclusive (neither active nor inactive); the mix of calls is not that of the screen. The call rests on the fitted dose curve; tested in HEK293 cells. A potency beside an inconclusive call is a rough fit, not a confirmed value.
# Assay: qHTS for Inhibitors of binding or entry into cells for Lassa Virus; further: nearly all actives have a fitted effect of over 50% in size
# Settings: Lassa virus pseudotype entry inhibition, cell reporter; series mostly up to 37.9 µM
# Potency means the concentration at half of the fitted maximal effect.
row,Structure (SMILES),Potency
1,Fc1ccc(-c2nnc(-c3ccc4ccccc4c3)o2)cc1,"inconclusive: 35.5 µM [inhibitor, single point]"
2,Cc1cc2c(cc(C(=O)OCC(=O)NCc3cccs3)n2C(C)C)o1,active: 9.2 µM
3,COc1ccc(CCN=C(N)NS(=O)(=O)c2ccc(C)cc2)cc1,"inconclusive: 10 µM [inhibitor, partial curve]"
4,CCNC(=O)C1CC(=O)N(c2ccc(OCC)cc2)C1 (stereo unspecified),"inconclusive: 12.6 µM [activator, single point]"
5,CCCCNS(=O)(=O)c1cc(-c2nn(C)c(=O)c3ccccc23)ccc1C,"inconclusive: 11.2 µM [inhibitor, partial curve]"
6,CCc1ccc(-c2cc(C)no2)cc1S(=O)(=O)Nc1ccc(C)cn1,inactive
7,Cc1cc(C)c(C(=O)NC2CCCc3c2cnn3-c2cccc(C)c2C)o1 (stereo unspecified),"inconclusive: 0.891 µM [inhibitor, full curve, poor fit]"
8,CN(C)c1cc2c(cc1NC(=O)c1ccc(F)cc1)n(C)c(=O)n2C,inactive
9,O=C(CSc1nnc(CNC(=O)c2cccs2)o1)NCCc1ccccc1,"inconclusive: 6.31 µM [inhibitor, single point]"
10,CC1(C)CC(CCC(=O)Nc2ccc(S(N)(=O)=O)cc2)C(=O)O1 (stereo unspecified),inactive
11,Cc1ccccc1OCC(=O)Nc1cccc(C(=O)O)c1,active: 0.891 µM
12,Cc1ccc2nsnc2c1NC(=S)NC(=O)c1ccco1,inactive
13,COc1cccc(Cn2c(C)c(CNCc3ccccc3Cl)c(C(=O)O)c2C)c1,inactive
14,CCOc1ccc(CNC(=O)c2ccc(NC(=O)N3CCSc4ncccc43)cc2)cc1OC,inactive
15,Cc1cccc(NC(=S)NNC(=O)c2csc3c2CCCC3)c1,inactive
16,COC(=O)C1=C(C(=O)OC)[C@@H]2N(CC=C(C)C)c3ccccc3[C@@]23CCC(=O)N(Cc2cccc(C(F)(F)F)c2)C3=N1,"inconclusive: 1.19 µM [activator, single point]"
17,Cc1cc2nccc(-c3ccccn3)n2n1,inactive
18,Cc1cc(OCC(=O)Nc2ccc(S(=O)(=O)N3CCN(C)CC3)cc2)ccc1Br,"inconclusive: 12.6 µM [activator, partial curve, poor fit]"
19,Cc1ccccc1OCc1ccc(-c2nc(C#N)c(N3CCN(c4ccccc4)CC3)o2)o1,inactive
20,COc1ccccc1C(=O)N1CCNC(=O)C1CC(=O)Nc1ccc(Cl)cc1 (stereo unspecified),"inconclusive: 35.5 µM [inhibitor, single point]"
21,CCCN1CCN(CCCNC(=O)CN2C(=O)c3cccnc3Oc3ccc(C)cc32)CC1,inactive
22,O=C(N/N=C\c1cc2c(cc1Cl)OCO2)c1ccc(Br)s1,"inconclusive: 5.62 µM [inhibitor, single point]"
23,CSC(=Nc1ccccc1)Nc1ccccc1,inactive
24,CC1(C)C(C=C(Cl)Cl)C1C(=O)N(Cc1ccccc1Cl)C1CCS(=O)(=O)C1 (stereo unspecified),"inconclusive: 8.91 µM [inhibitor, partial curve, poor fit]"

row,Structure (SMILES),Potency
1,C/C(=N\NC(=O)c1cc(C)[nH]n1)c1ccc(-c2ccccc2)cc1,"inconclusive: 15.8 µM [inhibitor, partial curve, poor fit]"
2,Cc1nc2cc(C(F)(F)F)ccc2n1C1CCN(Cc2nnnn2Cc2ccc3c(c2)OCO3)CC1,"inconclusive: 23.1 µM [inhibitor, single point]"
3,Cc1ccc(/C=C/C(=O)NCc2cccs2)c(C)c1,"inconclusive: 11.2 µM [inhibitor, partial curve, poor fit]"
4,CCN(C(=O)c1cnc(N2CCOCC2)c2ccccc12)c1cc(C)ccc1C,active: 5.01 µM
5,N#Cc1c(/N=C/c2cccs2)sc2c1CCC2,inactive
6,O=C(/C=C/c1ccccc1)Nc1cccnc1Oc1ccccc1F,"inconclusive: 35.5 µM [inhibitor, single point]"
7,O=C(Nc1ccccc1C(=O)Nc1ccccc1C(=O)O)c1ccccc1,"inconclusive: 4.47 µM [inhibitor, partial curve, poor fit]"
8,O=C(O)/C=C/C(=O)Nc1cccnc1,inactive
9,Cc1ccc(-n2c(C)nc3oc4ccccc4c(=O)c3c2=O)cc1,"inconclusive: 0.0517 µM [activator, full curve, poor fit]"
10,CCN(CC)CCNC(=O)c1nn(-c2ccc(Cl)cc2)c2c1CCc1cc(OC)ccc1-2,"inconclusive: 15.8 µM [inhibitor, single point]"
11,N=C(N)SCCN,inactive
12,Cc1nc2ccccc2c(=O)n1/N=C/c1c(O)ccc2ccccc12,inactive
13,COc1ccccc1/C=C/C(=O)NCC(=O)N/N=C(/C)c1ccco1,"inconclusive: 8.91 µM [activator, partial curve, poor fit]"
14,COc1ccc(CN2C(=O)CN(C3CCCCCC3)C(=O)C2c2ccc(OC)c(OC)c2)cc1 (stereo unspecified),"inconclusive: 5.8 µM [inhibitor, partial curve, poor fit]"
15,CCN1C(=S)SC(=O)C1=C1C=C(C)N(CCO)C(C)=C1,"inconclusive: 11.6 µM [inhibitor, partial curve, poor fit]"
16,COC(=O)c1cc(C#N)c(N(C)Cc2ccccc2)nc1C,inactive
17,Cc1ccnc(N/N=C/c2ccco2)n1,"inconclusive: 20.6 µM [activator, partial curve, poor fit]"
18,O=C(O)COc1cccc(NC(=O)c2ccccc2)c1,"inconclusive: 0.73 µM [inhibitor, partial curve, poor fit]"
19,Cc1cc(Cl)ccc1OCC(=O)N(Cc1ccc(N(C)C)cc1)CC1CCCO1 (stereo unspecified),"inconclusive: 35.5 µM [inhibitor, single point]"
20,Cc1nn(-c2ccccc2)c(Cl)c1/C=N/NC(=O)c1ccc(CNc2ccccc2)o1,"inconclusive: 23.1 µM [inhibitor, single point]"
21,CNc1nc(-c2c(C)n(C)c3ccc(OC)cc23)cs1,"inconclusive: 35.5 µM [inhibitor, single point]"
22,O=C(Cn1nc(Cl)nc1Cl)c1ccc2c(c1)OCCO2,inactive
23,COc1ccc(OCc2nc3c4c(-c5ccc(OC)cc5)c(-c5ccc(OC)cc5)oc4ncn3n2)cc1,inactive
24,Cc1ccc(NS(=O)(=O)c2ccc(C(=O)Nc3nncs3)cc2)cc1,"inconclusive: 35.5 µM [inhibitor, single point]"

row,Structure (SMILES),Potency
1,CCCCCN1C(C(=O)c2ccccc2)=C(NC(C)=O)c2ccccc2S1(=O)=O,"inconclusive: 35.5 µM [inhibitor, single point]"
2,CC(=O)c1cccc(NC(=O)c2c(C)nn(-c3ccc(F)cc3)c2-n2cccc2)c1,inactive
3,Cc1cccc(NC(=O)CSc2nnc(CCCCCNC(=O)OC(C)(C)C)o2)c1C,"inconclusive: 1.16 µM [inhibitor, single point]"
4,CCOC(=O)c1ccc(NC(=O)CSc2nccn2Cc2ccc(OC)cc2)cc1,"inconclusive: 0.316 µM [inhibitor, full curve, poor fit]"
5,CCCOc1ccc(OCC(=O)c2[nH]c(C)c(C(C)=O)c2C)cc1,"inconclusive: 2.91 µM [inhibitor, full curve]"
6,CC(=NNC(=O)c1ccncc1)c1ccc(O)cc1O,"inconclusive: 12.6 µM [inhibitor, partial curve, poor fit]"
7,CC(C)C(=O)N1CCN(c2ccc(NC(=O)COc3ccccc3[N+](=O)[O-])cc2)CC1,"inconclusive: 3.55 µM [inhibitor, partial curve, poor fit]"
8,CC[n+]1c(/C=C/c2c[nH]c3ccccc23)ccc2cc(C)ccc21,"inconclusive: 8.91 µM [inhibitor, partial curve, poor fit]"
9,O=C(Nc1ccc2ccccc2c1)c1ccccc1O,"inconclusive: 2.24 µM [inhibitor, partial curve, poor fit]"
10,CCOC(=O)N=Nc1c2ccccc2c2nc3no[nH]c3nc12,"inconclusive: 1.58 µM [inhibitor, full curve, poor fit]"
11,CCOc1ccc(-c2nnc(SCC(=O)NCCc3ccccc3)nc2-c2ccc(OCC)cc2)cc1,"inconclusive: 0.794 µM [inhibitor, full curve, poor fit]"
12,CC1=CCC2COC(c3ccc[n+](Cc4ccccc4)c3)C1C2 (stereo unspecified),inactive
13,CCN(Cc1ccccc1)C(=O)c1cc(-c2ccc(OC)c(OC)c2)nc2ccccc12,"inconclusive: 35.5 µM [inhibitor, single point]"
14,CN(Cc1nccn1C)C(=O)c1ccc(OC2CCN(CCc3ccccc3)CC2)cc1,"inconclusive: 1 µM [activator, single point]"
15,COc1ccc(C)cc1NC(=O)c1ccoc1C,inactive
16,CCOc1ccccc1NC(=O)c1ccc2c(Cl)c3c(nc2c1)CCCC3,inactive
17,COc1ccc(CCNC(=O)COC(=O)C2CC2)cc1,"inconclusive: 3.16 µM [inhibitor, full curve]"
18,CC1CCN(c2ccccc2NC(=O)c2cc([N+](=O)[O-])ccc2N2CCOCC2)CC1,"inconclusive: 28.2 µM [inhibitor, single point]"
19,Nc1ccc2cc3[nH]c4cc(N)ccc4c3nc2c1,"inconclusive: 35.5 µM [inhibitor, single point]"
20,CCSc1nnc(NC(=O)NC2CCCCC2)s1,inactive
21,CNC(=S)N/N=C/c1c(C)nn(-c2ccc(F)cc2)c1Cl,"inconclusive: 6.31 µM [inhibitor, partial curve, poor fit]"
22,CCOc1ncccc1C(=O)OCC(=O)c1ccc(Cl)s1,"inconclusive: 29.1 µM [activator, single point]"
23,Cc1c(-c2ccccc2)n(-c2ccccc2O)c2nc3c(c(=O)n(C)c(=O)n3C)n12,"inconclusive: 6.31 µM [inhibitor, partial curve, poor fit]"

# Retrieved by structure from the list above (6):
row,Structure (SMILES),Potency
14,CN(Cc1nccn1C)C(=O)c1ccc(OC2CCN(CCc3ccccc3)CC2)cc1,"inconclusive: 1 µM [activator, single point]"
16,CCOc1ccccc1NC(=O)c1ccc2c(Cl)c3c(nc2c1)CCCC3,inactive
8,CC[n+]1c(/C=C/c2c[nH]c3ccccc23)ccc2cc(C)ccc21,"inconclusive: 8.91 µM [inhibitor, partial curve, poor fit]"
17,COc1ccc(CCNC(=O)COC(=O)C2CC2)cc1,"inconclusive: 3.16 µM [inhibitor, full curve]"
22,CCOc1ncccc1C(=O)OCC(=O)c1ccc(Cl)s1,"inconclusive: 29.1 µM [activator, single point]"
11,CCOc1ccc(-c2nnc(SCC(=O)NCCc3ccccc3)nc2-c2ccc(OCC)cc2)cc1,"inconclusive: 0.794 µM [inhibitor, full curve, poor fit]"
